Results reported in patent US7081343.
No constants are given. Whether binding was seen depends on the method and setting. For part of these data: Binding seen in cells or lysates may run through a third protein. Some entries that bind do so weakly or less than the wild type.

Protein sequences, listed by entry. Tags and fused reporters are not part of them. Lines headed by an entry give the natural chain unless they say otherwise; changes in a name come on top. Residues count along the entry.
UniProt Q04206: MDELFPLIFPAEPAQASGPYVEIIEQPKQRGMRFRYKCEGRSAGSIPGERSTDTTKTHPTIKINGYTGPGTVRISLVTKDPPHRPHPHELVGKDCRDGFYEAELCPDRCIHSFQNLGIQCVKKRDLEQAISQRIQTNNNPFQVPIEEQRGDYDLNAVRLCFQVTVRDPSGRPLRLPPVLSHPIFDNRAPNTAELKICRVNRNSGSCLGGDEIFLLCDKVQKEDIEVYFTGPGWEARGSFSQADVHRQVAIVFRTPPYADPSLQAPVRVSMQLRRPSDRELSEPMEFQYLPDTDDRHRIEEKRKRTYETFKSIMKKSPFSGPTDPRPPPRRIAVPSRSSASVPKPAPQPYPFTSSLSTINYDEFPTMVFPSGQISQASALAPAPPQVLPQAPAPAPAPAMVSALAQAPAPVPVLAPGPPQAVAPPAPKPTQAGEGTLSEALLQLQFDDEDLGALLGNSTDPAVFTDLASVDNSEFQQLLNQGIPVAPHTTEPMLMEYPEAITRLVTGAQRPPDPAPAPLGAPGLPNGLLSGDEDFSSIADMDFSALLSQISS
RelA N-terminal 180 amino acids (mammalian two-hybrid construct): residues 1-180 of Q04206
UniProt O15379: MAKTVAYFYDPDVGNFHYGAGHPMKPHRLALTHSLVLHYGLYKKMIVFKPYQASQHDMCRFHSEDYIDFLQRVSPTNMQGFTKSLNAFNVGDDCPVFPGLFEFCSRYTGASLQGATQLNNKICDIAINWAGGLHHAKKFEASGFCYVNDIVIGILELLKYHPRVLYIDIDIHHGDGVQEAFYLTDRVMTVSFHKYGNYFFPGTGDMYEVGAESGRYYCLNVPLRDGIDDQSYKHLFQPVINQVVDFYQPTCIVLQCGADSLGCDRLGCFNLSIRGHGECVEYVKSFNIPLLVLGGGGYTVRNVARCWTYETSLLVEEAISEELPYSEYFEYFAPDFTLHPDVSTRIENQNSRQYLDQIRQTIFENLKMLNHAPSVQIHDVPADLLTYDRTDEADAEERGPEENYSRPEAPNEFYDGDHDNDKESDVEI

Columns and labels:
[1] = biological target: RelA N-terminal 180 amino acids (mammalian two-hybrid construct) (UniProt Q04206); assay: mammalian two-hybrid assay
[2] = biological target: RelA N-terminal 180 amino acids (mammalian two-hybrid construct) (UniProt Q04206); assay: mammalian two-hybrid assay (FIG. 3E)
T7-RelA = T7-RelA (UniProt Q04206); assay: co-immunoprecipitation of HDAC3 deletion mutants with RelA

binding [1] | binding [2] | binding (T7-RelA) | Substance
binds | binds | – | HDAC3 (mammalian two-hybrid construct) (from UniProt O15379 1-428) (enzyme)
– | – | binds | HDAC3 (1-406) (from UniProt O15379 1-406) (enzyme)
